Laboratory results reported in patent US9564604B2, “Fused polycyclic aromatic compounds, organic semiconductor material and thin film including the same, and method for producing an organic semiconductor device” (Nippon Kayaku Kabushiki Kaisha, priority 2012, dated 2017).
At least one structure is not confirmed: it was looked up by name or label, or the drawing left a doubt.

Assay: CV (cyclic voltammetry) measurement in dichloromethane
Assay type: physicochemical
Conditions: n-BuN4PF6 0.1 M, Pt electrodes, silver-silver chloride reference, 100 mV/sec
Description: CV measurement was conducted by using dichloromethane as solvent, tetrabutylammonium hexafluorophosphate (n-BuN4PF6, 0.1 M) as a supporting electrolyte, platinum wires as working electrodes and counter electrodes, and a silver-silver chloride electrodes as reference electrodes, and by sweeping the electric potential at a rate of 100 mV/sec. In all Compounds 101, 110, 112, 136, 201, 210, 212, 214, and 236, two pairs of oxidation-reduction waves were observed.

SMILES: CC(C)[Si](c1cc2c(s1)c(=C(C#N)C#N)cc1c3cc([Si](C(C)C)(C(C)C)C(C)C)sc3c(=C(C#N)C#N)cc21)(C(C)C)C(C)C [Compound 236]
- first half-wave reduction potential: 0.06 V
- second half-wave reduction potential: −0.28 V
